The test addresses T1, Sr50 1-163:CFP (rye (Secale cereale)).
T1 sequence: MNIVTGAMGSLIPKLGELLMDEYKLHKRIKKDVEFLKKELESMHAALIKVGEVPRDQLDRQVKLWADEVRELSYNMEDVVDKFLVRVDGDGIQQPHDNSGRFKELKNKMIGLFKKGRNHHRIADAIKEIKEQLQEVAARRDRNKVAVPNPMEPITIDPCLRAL
Description: co-immunoprecipitation with anti-GFP antibodies from N. benthamiana leaf cells.

Results are given in words; binding and its absence hold for the method and conditions named. In cells and extracts the contact can be indirect. Some binding calls cover weakened binding; strength is not graded here. Tags and fused reporters may be left off the sequences shown.

B1: Sr50 1-163:HA (other)
chain: T1 sequence
notes: Transiently expressed in N. benthamiana leaf cells under the 35S promoter; also called full CC domain of Sr50 fused to a C-terminal HA tag; not shown: C-terminal HA tag (vector pBIN19-35S::GTW:3HA)
Regarding B1, the binding result was “binds”.

The record behind these values is patent US20200270627A1 (COMMONWEALTH SCIENTIFIC AND INDUSTRIAL RESEARCH ORGANISATION, published 2020).
